Results on 1 molecule are retold here after patent US10285972B2, “Trans-2-nonadecyl-4-hydroxymethyl-1,3-dioxolane and producing methodthereof” (Greenyn Biotechnology Co., Ltd, priority 2014, dated 2019).

In one data set the test system is liver. The data set can be described thus: Organ weights, liver appearance and liver staining (H&E, Surius red) of mice fed 45% high-fat diet. To be noted: 8 weeks. Format: in vivo, C57BL/6 mice. The method, then: (§1) The 4 weeks-old male C57BL/6 mice were divided into 5 groups and treated with different feeding conditions, wherein the group 1 was the blank control fed with normal diet and water, the group 2 was fed with 45% high-fat diet and water, the group 3 was fed with 45% high-fat diet, water and 10 mg/Kg the compound TNHD, the group 4 was fed with 45% high-fat diet, water and 20 mg/Kg the compound TNHD, and the group 5 was fed with 45% high-fat diet, water and 200 mg/Kg Silymarin. Feeding for 8 weeks, and then all the mice were sacrificed.
The weights of liver, kidney and spleen of the mice in the each group were measured and recorded in table 2. The macroscopic appearance of the liver from the mice of the each group was shown as FIG. 6. Furthermore, the liver collected from the sacrificed mice in each groups was fixed with formalin. After the fixation, the liver tissue of the each group was paraffin-embedded for histology section and stained by H&E and Surius red for analysis.

Data set [1] in a line: Body weight and food intake of mice fed 45% high-fat diet for 8 weeks. Format: in vivo, C57BL/6 mice. Particulars: mean±SE. Here is the method: as §1
At the end of the experiment, taking photographs of the each group were shown as FIG. 4.
The body weight and food intake in the each group were recorded in the table 1, wherein the data is expressed as the mean±SE.

The mark [2] stands for this setting: group 3: 45% high-fat diet + 10 mg/Kg TNHD.
[3] abbreviates: group 4: 45% high-fat diet + 20 mg/Kg TNHD.

Regarding `CCCCCCCCCCCCCCCCCCC[C@@H]1OC[C@@H](CO)O1` (relative stereo) [TNHD, trans-2-nonadecyl-4-hydroxymethyl-1,3-dioxolane], the Kidney weight with liver (setting [2]) turned out to be 1.51 ± 0.25 g; with liver (setting [3]), 1.63 ± 0.24 g. Moreover, the results for the Spleen weight in the data set on liver (setting [2]) and with liver (setting [3]) were 0.30 ± 0.04 g and 0.53 ± 0.36 g, respectively. Also, the values for the Food intake in data set [1] (setting [2]) and in data set [1] (setting [3]) were 4.5 ± 0.2 g/mouse/day and 3.7 ± 0.2 g/mouse/day, respectively.
